The list shows only some results of the screen, not a fair sample: its compounds were picked by chemical class. Other doses and runs of a compound may be missing. T/C: endpoint of the treated group in % of that of the vehicle group. Where survival is the endpoint, this PubChem deposit counts one and a half times the control or more as active, and values a quarter to a half above the control carry no call in these data; other NCI protocols may use other cut-offs. Some T/C values are marked as having no survivor count here; that says nothing about deaths at the dose. Schedules are NCI's codes, taken here to give the interval after Q, in days (D) or hours (H), and the number of doses after X. Some doses were run more than once; the values are given in rising order. Some schedules carry Z or #; the key to these is not given.
Tested on: L1210 leukemia ip in BDF1 mice, survival T/C
Assay: NCI In Vivo Anticancer Drug Screen. Data for tumor model L1210 Leukemia (intraperitoneal) in B6D2F1 (BDF1) mice
Details: T/C endpoint: mean survival time, higher T/C = longer survival

NC(Cc1cccc(N(CCCl)CCCl)c1)C(=O)O (stereo unspecified)
T/C (dose: 0.12 mg/kg/injection, schedule: Q01DX Z (oral), vehicle: carboxymethylcellulose (CMC)): 117 % of control [survivor count not shown]
T/C (dose: 0.18 mg/kg/injection, schedule: Q01DX Z (oral), vehicle: carboxymethylcellulose (CMC)): 125 % of control [survivor count not shown]
T/C (dose: 0.24 mg/kg/injection, schedule: Q01DX001 (ip), vehicle: carboxymethylcellulose (CMC)): 110 % of control [survivor count not shown]
T/C (dose: 0.24 mg/kg/injection, schedule: Q01DX009 (ip), vehicle: saline): 107 % of control [survivor count not shown]
T/C (dose: 0.28 mg/kg/injection, schedule: Q01DX Z (oral), vehicle: carboxymethylcellulose (CMC)): 115 % of control [survivor count not shown]
T/C (dose: 0.29 mg/kg/injection, schedule: Q01DX006 (iv), vehicle: carboxymethylcellulose (CMC)): 114 % of control [survivor count not shown]
T/C (dose: 0.29 mg/kg/injection, schedule: Q01DX Z (ip), vehicle: carboxymethylcellulose (CMC)): 119 % of control [survivor count not shown]
T/C (dose: 0.37 mg/kg/injection, schedule: Q01DX001 (ip), vehicle: carboxymethylcellulose (CMC)): 111 % of control [survivor count not shown]
T/C (dose: 0.43 mg/kg/injection, schedule: Q01DX Z (oral), vehicle: carboxymethylcellulose (CMC)): 125 [survivor count not shown] and 135 % of control [survivor count not shown]
T/C (dose: 0.44 mg/kg/injection, schedule: Q01DX006 (iv), vehicle: carboxymethylcellulose (CMC)): 111 % of control [survivor count not shown]
T/C (dose: 0.44 mg/kg/injection, schedule: Q01DX Z (ip), vehicle: carboxymethylcellulose (CMC)): 130 % of control [survivor count not shown]
T/C (dose: 0.47 mg/kg/injection, schedule: Q01DX009 (ip), vehicle: saline): 117 % of control [survivor count not shown]
T/C (dose: 0.5 mg/kg/injection, schedule: Q01DX009 (ip), vehicle: carboxymethylcellulose (CMC)): 135 % of control [survivor count not shown]
T/C (dose: 0.5 mg/kg/injection, schedule: Q01DX009 (oral), vehicle: carboxymethylcellulose (CMC)): 112 % of control [survivor count not shown]
T/C (dose: 0.5 mg/kg/injection, schedule: Q01DX009 (sc), vehicle: carboxymethylcellulose (CMC)): 115 % of control [survivor count not shown]
T/C (dose: 0.56 mg/kg/injection, schedule: Q01DX001 (ip), vehicle: carboxymethylcellulose (CMC)): 117 % of control [survivor count not shown]
T/C (dose: 0.63 mg/kg/injection, schedule: Q01DX010 (ip), vehicle: saline): 110 [survivor count not shown] and 112 % of control [survivor count not shown]
T/C (dose: 0.66 mg/kg/injection, schedule: Q01DX006 (iv), vehicle: carboxymethylcellulose (CMC)): 109 % of control [survivor count not shown]
T/C (dose: 0.66 mg/kg/injection, schedule: Q01DX Z (ip), vehicle: carboxymethylcellulose (CMC)): 160 % of control [survivor count not shown]
T/C (dose: 0.73 mg/kg/injection, schedule: Q01DX Z (oral), vehicle: carboxymethylcellulose (CMC)): 131 % of control [survivor count not shown]
T/C (dose: 0.8 mg/kg/injection, schedule: Q01DX Z (ip), vehicle: carboxymethylcellulose (CMC)): 159 % of control [survivor count not shown]
T/C (dose: 0.84 mg/kg/injection, schedule: Q01DX001 (ip), vehicle: carboxymethylcellulose (CMC)): 134 [survivor count not shown] and 140 % of control [survivor count not shown]
T/C (dose: 0.93 mg/kg/injection, schedule: Q01DX009 (ip), vehicle: other): 131 % of control [survivor count not shown]
T/C (dose: 1.0 mg/kg/injection, schedule: Q01DX006 (iv), vehicle: carboxymethylcellulose (CMC)): 111 % of control [survivor count not shown]
T/C (dose: 1.0 mg/kg/injection, schedule: Q01DX009 (ip), vehicle: carboxymethylcellulose (CMC)): 143 % of control [survivor count not shown]
T/C (dose: 1.0 mg/kg/injection, schedule: Q01DX009 (oral), vehicle: carboxymethylcellulose (CMC)): 119 % of control [survivor count not shown]
T/C (dose: 1.0 mg/kg/injection, schedule: Q01DX009 (sc), vehicle: carboxymethylcellulose (CMC)): 121 % of control [survivor count not shown]
T/C (dose: 1.0 mg/kg/injection, schedule: Q01DX Z (im), vehicle: carboxymethylcellulose (CMC)): 117 % of control [survivor count not shown]
T/C (dose: 1.0 mg/kg/injection, schedule: Q01DX Z (ip), vehicle: carboxymethylcellulose (CMC)): 119 [survivor count not shown] and 127 % of control [survivor count not shown]
T/C (dose: 1.0 mg/kg/injection, schedule: Q01DX Z (sc), vehicle: carboxymethylcellulose (CMC)): 119 % of control [survivor count not shown]
T/C (dose: 1.0 mg/kg/injection, schedule: Q## X003 (ip), vehicle: carboxymethylcellulose (CMC)): 113 [survivor count not shown] and 122 % of control [survivor count not shown]
T/C (dose: 1.0 mg/kg/injection, schedule: Q## X024 (ip), vehicle: carboxymethylcellulose (CMC)): 107 % of control [survivor count not shown]
T/C (dose: 1.1 mg/kg/injection, schedule: Q01DX Z (oral), vehicle: carboxymethylcellulose (CMC)): 128 % of control [survivor count not shown]
T/C (dose: 1.2 mg/kg/injection, schedule: Q01DX001 (ip), vehicle: carboxymethylcellulose (CMC)): 146 % of control [survivor count not shown]
T/C (dose: 1.25 mg/kg/injection, schedule: Q01DX001 (ip), vehicle: saline): 113 % of control [survivor count not shown]
T/C (dose: 1.25 mg/kg/injection, schedule: Q01DX009 (ip), vehicle: saline): 131 [survivor count not shown] and 134 % of control [survivor count not shown]
T/C (dose: 1.25 mg/kg/injection, schedule: Q01DX010 (ip), vehicle: saline): 134 [survivor count not shown] and 139 % of control [survivor count not shown]
T/C (dose: 1.25 mg/kg/injection, schedule: Q01DX Z (ip), vehicle: carboxymethylcellulose (CMC)): 150 % of control [survivor count not shown]
T/C (dose: 1.6 mg/kg/injection, schedule: Q01DX009 (ip), vehicle: other): 134 % of control [survivor count not shown]
T/C (dose: 1.7 mg/kg/injection, schedule: Q01DX Z (oral), vehicle: carboxymethylcellulose (CMC)): 128 [survivor count not shown] and 140 % of control [survivor count not shown]
T/C (dose: 1.9 mg/kg/injection, schedule: Q01DX001 (ip), vehicle: carboxymethylcellulose (CMC)): 128 % of control [survivor count not shown]
T/C (dose: 2.0 mg/kg/injection, schedule: Q01DX001 (ip), vehicle: carboxymethylcellulose (CMC)): 124 % of control [survivor count not shown]
T/C (dose: 2.0 mg/kg/injection, schedule: Q01DX009 (ip), vehicle: carboxymethylcellulose (CMC)): 152 % of control [survivor count not shown]
T/C (dose: 2.0 mg/kg/injection, schedule: Q01DX009 (oral), vehicle: carboxymethylcellulose (CMC)): 127 % of control [survivor count not shown]
T/C (dose: 2.0 mg/kg/injection, schedule: Q01DX009 (sc), vehicle: carboxymethylcellulose (CMC)): 131 % of control [survivor count not shown]
T/C (dose: 2.0 mg/kg/injection, schedule: Q01DX Z (im), vehicle: carboxymethylcellulose (CMC)): 132 % of control [survivor count not shown]
T/C (dose: 2.0 mg/kg/injection, schedule: Q01DX Z (ip), vehicle: carboxymethylcellulose (CMC)): 150 % of control [survivor count not shown]
T/C (dose: 2.0 mg/kg/injection, schedule: Q01DX Z (sc), vehicle: carboxymethylcellulose (CMC)): 130 % of control [survivor count not shown]
T/C (dose: 2.0 mg/kg/injection, schedule: Q## X002 (ip), vehicle: carboxymethylcellulose (CMC)): 124 [survivor count not shown] and 139 % of control [survivor count not shown]
T/C (dose: 2.0 mg/kg/injection, schedule: Q## X002 (oral), vehicle: carboxymethylcellulose (CMC)): 112 % of control [survivor count not shown]
T/C (dose: 2.0 mg/kg/injection, schedule: Q## X003 (ip), vehicle: carboxymethylcellulose (CMC)): 138 [survivor count not shown] and 141 % of control [survivor count not shown]
T/C (dose: 2.0 mg/kg/injection, schedule: Q## X016 (ip), vehicle: carboxymethylcellulose (CMC)): 107 % of control [survivor count not shown]
T/C (dose: 2.0 mg/kg/injection, schedule: Q## X024 (ip), vehicle: carboxymethylcellulose (CMC)): 119 % of control [survivor count not shown]
T/C (dose: 2.5 mg/kg/injection, schedule: Q01DX001 (ip), vehicle: saline): 103 % of control [survivor count not shown]
T/C (dose: 2.5 mg/kg/injection, schedule: Q01DX009 (ip), vehicle: saline): 146 [survivor count not shown] and 162 % of control [survivor count not shown]
T/C (dose: 2.5 mg/kg/injection, schedule: Q01DX010 (ip), vehicle: saline): 159 [survivor count not shown] and 181 % of control [survivor count not shown]
T/C (dose: 2.6 mg/kg/injection, schedule: Q01DX Z (oral), vehicle: carboxymethylcellulose (CMC)): 143 % of control [survivor count not shown]
T/C (dose: 2.66 mg/kg/injection, schedule: Q01DX009 (ip), vehicle: other): 160 % of control [survivor count not shown]
T/C (dose: 2.9 mg/kg/injection, schedule: Q01DX001 (ip), vehicle: carboxymethylcellulose (CMC)): 109 [survivor count not shown] and 134 % of control [survivor count not shown]
T/C (dose: 4.0 mg/kg/injection, schedule: Q01DX001 (ip), vehicle: carboxymethylcellulose (CMC)): 142 [survivor count not shown] and 151 % of control [survivor count not shown]
T/C (dose: 4.0 mg/kg/injection, schedule: Q01DX001 (oral), vehicle: carboxymethylcellulose (CMC)): 112 % of control [survivor count not shown]
